At least one compound was matched to its structure with a doubt left.
Experiment: corticosteroid premedication and glofitamab-induced cytokine levels in mice
Type: in vivo
Conditions: mice pretreated with dexamethasone, relative to methylprednisolone

Question: Which glofitamab-induced cytokine levels does the source give for `C[C@@H]1C[C@H]2[C@@H]3CCC4=CC(=O)C=C[C@]4(C)[C@@]3(F)[C@@H](O)C[C@]2(C)[C@@]1(O)C(=O)CO` [dexamethasone] here?
Answer: reduced glofitamab-induced cytokine levels

Reference: patent publication US20230414750A1, “COMBINATION TREATMENT OF AN ANTI-CD20/ANTI-CD3 BISPECIFIC ANTIBODY AND CHEMOTHERAPY” (Hoffmann-La Roche Inc., priority 2022, published 2023)
